1 molecule from patent US20250043016A1 (SANYOU BIOPHARMACEUTICALS, published 2025) can be followed below.

Chains of the proteins cited; added tags and fusions are not shown. Lines headed by an entry give the natural chain unless they say otherwise; changes in a name come on top.
UniProt P20333: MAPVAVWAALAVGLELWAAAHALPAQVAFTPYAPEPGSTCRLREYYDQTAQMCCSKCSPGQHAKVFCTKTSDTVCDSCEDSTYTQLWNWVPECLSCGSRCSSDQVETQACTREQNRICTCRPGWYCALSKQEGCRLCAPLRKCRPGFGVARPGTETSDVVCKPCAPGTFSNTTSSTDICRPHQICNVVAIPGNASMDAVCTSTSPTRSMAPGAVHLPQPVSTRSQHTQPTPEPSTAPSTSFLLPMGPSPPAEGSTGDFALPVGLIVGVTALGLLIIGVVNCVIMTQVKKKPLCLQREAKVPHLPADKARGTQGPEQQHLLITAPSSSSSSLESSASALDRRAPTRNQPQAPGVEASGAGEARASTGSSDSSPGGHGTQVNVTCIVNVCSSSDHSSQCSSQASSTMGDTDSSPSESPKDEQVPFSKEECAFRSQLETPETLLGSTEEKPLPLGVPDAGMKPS

In this test the target is TNFR2 (33-205 aa) protein, expressed in E. coli and renatured (Homo sapiens (Human)) (UniProt P20333). The test is described as follows: complex prepared on Superdex 75 and crystallised; X-ray diffraction.

These are yes or no findings as the source states them, for the method shown. Some entries that bind do so weakly or less than the wild type. Where a sequence is shown, tags or fusion partners need not be part of it.

B1: 161-hVH5-48 nanobody with the Fc removed by papain digestion (VHH)
VHH: EVQLVESGGGLVQPGGSLRLSCAASGSIRFINDMGWYRQAPGKGLELVAAIGRGGGSTNYADSVKGRFTISRDNAKNTLYLQMNSLRAEDTAVYYCHAEISQLGYAFRDYWGQGTLVTVSS
For B1, the binding result is listed as “binds”.
